These are yes or no findings as the source states them, for the method shown. In cells and extracts the contact can be indirect. Binding calls can cover weak binding; strength is not graded here. Sequences can lack the tags named with a protein.
Molecular target: T1, caveolin-1 (CAV1), CFP-tagged (UniProt P41350)
T1 sequence: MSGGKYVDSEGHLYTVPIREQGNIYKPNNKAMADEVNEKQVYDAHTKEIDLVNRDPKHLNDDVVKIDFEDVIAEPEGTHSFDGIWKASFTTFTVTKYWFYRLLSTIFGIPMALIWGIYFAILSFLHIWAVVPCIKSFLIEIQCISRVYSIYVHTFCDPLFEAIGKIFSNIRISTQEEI
Experiment: co-IP; HEK-293 AD cells co-transfected with c-Myc-Necc2 and CFP-Cav1; lysates and immunoprecipitates blotted with anti-cMyc and anti-GFP; precipitating antibody not stated

By UniProt entry, the sequences of proteins in these tests, tags left out. Where a name states a change or a piece, a line headed by the entry shows the natural chain unless it says otherwise.
UniProt Q5VZ66: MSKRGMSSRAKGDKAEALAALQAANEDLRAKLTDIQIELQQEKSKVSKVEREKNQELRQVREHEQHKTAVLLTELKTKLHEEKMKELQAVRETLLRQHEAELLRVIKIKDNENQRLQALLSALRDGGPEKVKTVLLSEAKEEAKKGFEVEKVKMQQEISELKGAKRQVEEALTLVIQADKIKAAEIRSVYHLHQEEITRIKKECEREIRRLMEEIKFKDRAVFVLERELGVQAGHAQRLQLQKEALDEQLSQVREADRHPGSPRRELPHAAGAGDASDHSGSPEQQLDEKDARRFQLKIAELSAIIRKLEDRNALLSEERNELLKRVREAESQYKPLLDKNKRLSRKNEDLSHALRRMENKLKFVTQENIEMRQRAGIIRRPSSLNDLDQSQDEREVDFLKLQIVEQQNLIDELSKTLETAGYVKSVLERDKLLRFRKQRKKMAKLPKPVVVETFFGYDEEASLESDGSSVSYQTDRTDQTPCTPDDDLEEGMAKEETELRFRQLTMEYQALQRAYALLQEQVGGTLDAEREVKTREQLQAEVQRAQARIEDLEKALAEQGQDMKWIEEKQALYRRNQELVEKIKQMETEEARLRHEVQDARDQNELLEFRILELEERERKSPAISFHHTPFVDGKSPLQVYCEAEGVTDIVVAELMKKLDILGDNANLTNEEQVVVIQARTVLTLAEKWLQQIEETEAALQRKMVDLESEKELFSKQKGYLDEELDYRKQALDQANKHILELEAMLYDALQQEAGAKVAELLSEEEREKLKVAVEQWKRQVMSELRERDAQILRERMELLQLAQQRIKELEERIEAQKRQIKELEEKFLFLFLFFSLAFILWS

binding: binds
Substance: neuroendocrine long coiled-coil protein-2 (NECC2), c-Myc-tagged (from UniProt Q5VZ66)
